Experimental data as given in patent EP0164320A1, “Pharmaceutical preparations for spinal analgesia containing guanfacine, and method for their preparation” (priority 1984, dated 1985).
At least one structure is not confirmed: it was looked up by name or label, or the drawing left a doubt.

Experiments:
Format in all cases: in vivo
male Sprague-Dawley rats [1] = test: tail-flick test after intrathecal injection in rats; conditions: rat, intrathecally administered guanfacine (Table 1), result in words
Experimental: (§1) The antinociceptive effect of guanfacine may be established by the hot plate and tail-flick test.
(§2) Testing of tail-flick was performed using an IITC Inc. Mod. 33 Analgesia- meter@, with the light focused on the tip of the tail (d'Amour, F.E. and Smith, D.L. J. Pharmacol. Exp. Ther. 72, 74, 1941). The intensity of the beam was adjusted to give a reaction time of 3-4 sec. before intrathecal injection of the drug solutions. For the hot plate testing, a modification of the Eddy and Leimbach method (Eddy, N.B. and Leimbach, D. J. Pharmacol. Exp. Ther. 107, 385, 1952) was used. An IITC Inc. Mod. 35-D Analgesiameter® was set at a temperature of 58^±0.2°C. The criteria for a pain response was licking of either of the hindpaws.
(§3) We examined the pain responsiveness of male Sprague-Dawley rats in a weight range of 300-350 g. […] The catheter was fixed at a surgical operation. The animals were kept in the animal colony in separate cages until testing took place 1 week after operation. The drug was administered in a volume of 15 µl, and testing of hot plate and tail-flick reaction latencies took place at the intervals given in the tables. Animals given the combination of guanfacine and bupivacaine were not tested until the local anaesthetic effect of bupivacaine had disappeared, which normally took between 10 and 15 minutes. […]

mice [2] = test: tail-flick test after intrathecal injection in mice; conditions: at as low doses as 0.05 µg guanfacine, result in words
Experimental: (§4) Antinociceptive effects in mice were established in the following test. The effect 15 minutes after intrathecal injection of a volume of 5 µl containing different doses of guanfacine was established. The vehicle used was a physiological solution of sodium chloride.

male Sprague-Dawley rats [3] = test: hot plate test after intrathecal injection in rats; conditions: rat, intrathecally administered guanfacine (Table 1), result in words
Experimental: as §1, §2, §3

mice [4] = test: hot-plate test after intrathecal injection in mice; conditions: at as low doses as 0.05 µg guanfacine, result in words
Experimental: as §4

mice [5] = test: behavioural response (paw licking) after subcutaneous formaline in mice; conditions: guanfacine i.th., result in words
Experimental: Behavioural response in mice after subcutaneous injection of 20 µl of a physiological solution of sodium chloride or a 1 % solution of formaline on the dorsum of either hind paw.
5 µl, 0.01% ([…]) of guanfacine or the same volume of a physiological solution of sodium chloride were injected intrathetecally 15 minutes before the subcutaneous injection of formaline. The accumulated reaction, i.e. the total time of licking on the injected paw, was measured during the 5 minutes after the injection of formaline.
The results are expressed as mean accumulated response during 5 minutes in seconds ± S.E.M. Each group consisted of 10 animals.

## N=C(N)NC(=O)Cc1c(Cl)cccc1Cl [guanfacine, 2,6-dichlorophenyl-acetyl-guanidine]
Male Sprague-Dawley rats [1]
  reaction latency in the tail-flick test: prolonged
Mice [2]
  reaction latency in the tail-flick test: prolonged
Male Sprague-Dawley rats [3]
  reaction latency in the hot plate test: prolonged
Mice [4]
  reaction latency in the hot-plate test: prolonged
Mice [5]
  pain caused by formaline, i.e. longlasting pain: effectively blocked
